# In PubChem BioAssay AID901 (National Center for Advancing Translational Sciences (NCATS), 2007):
# The other results are listed elsewhere or left out. These are further read-outs of the screen, such as a control signal, another cell line or another target. No call is given for them. The list favours compounds with an active or inconclusive main result. The note in brackets gives the kind of curve behind each potency; many fits are weak.
# Experiment: qHTS Assay for Identifying the Cell-Membrane Permeable IMPase Inhibitors
# Settings: CHO-M1 cells, IP1 accumulation, HTRF TR-FRET ratio; measured here: donor channel 620 nm AC50
row,Structure (SMILES),AC50
1,CCC(CC)c1nnc(NC(=O)CCN2C(=O)c3ccccc3C2=O)s1,"3.98 µM [rising, partial curve]"
2,Cc1ccc(S(=O)(=O)C(C#N)c2nc3ccccc3nc2N2CCCC2)cc1C (stereo unspecified),"0.0316 µM [rising, full curve, poor fit]"
3,COc1ccc([N+](=O)[O-])cc1NC(=O)C(C)OC(=O)C1c2ccccc2Oc2ccccc21 (stereo unspecified),"0.0126 µM [rising, full curve, poor fit]"
4,CCOC(=O)c1oc2ccccc2c1NC(=O)c1ccc(S(=O)(=O)N2CCCC2)cc1,"0.0126 µM [rising, full curve, poor fit]"
5,CC(=O)N1C(=O)N(C)C2C1N(C(C)=O)C(=O)N2C (stereo unspecified),"0.631 µM [falling, full curve]"
6,Cc1ccc(S(=O)(=O)N2CCOCC2)cc1C(=O)NCc1cccnc1,"0.631 µM [falling, full curve, poor fit]"
7,Cc1ccccc1OCC(=O)NCCC(=O)O,"0.1 µM [rising, full curve, poor fit]"
8,COc1ccc(-c2cc(C(F)(F)F)nc(SCC(=O)NCCc3ccccc3)n2)cc1,"35.5 µM [rising, single point]"
9,Cc1n[nH]c(=O)n1-c1ccc(Oc2ccccc2)cc1,"20 µM [falling, single point]"
10,CCN1CCN(CCNC(=O)c2cn(Cc3ccccc3F)nn2)CC1,"1 µM [falling, full curve]"
11,O=C(COc1ccc([N+](=O)[O-])cc1)N/N=C/c1ccccn1,"31.6 µM [falling, single point]"
12,Cc1nnc(NC(=O)c2c(F)c(F)c(F)c(F)c2F)s1,"5.62 µM [falling, single point]"
13,CCOc1ccc(NC(=O)CSc2nnc(C)n2CC2CCCO2)cc1 (stereo unspecified),"0.1 µM [falling, full curve, poor fit]"
14,Cc1cccc(COc2ccc(/C(O)=C3\C(=O)C(=O)N(CCN(C)C)C3c3ccncc3)cc2)c1 (stereo unspecified),"0.126 µM [falling, single point]"
15,COC(=O)c1cc2c(ccn2-c2ccc(F)cc2)n1CC(=O)N1CCN(C(=O)c2ccco2)CC1,"0.0316 µM [falling, full curve, poor fit]"
16,O=c1oc2ccccc2c(N2CCN(c3ccccc3F)CC2)c1CN1CCCC1,"3.98 µM [falling, partial curve]"
17,c1ccc2c(c1)CCN(c1nc3cc4c(cc3s1)OCCO4)C2,"3.16 µM [falling, single point]"
18,COc1ccc(NC(C)=O)cc1NC(=O)CSc1nnc(-c2ccncc2)n1C,"0.251 µM [falling, full curve]"
19,Cc1ccc(C2C(C(N)=S)=C(N)OC3=C2C(=O)CC(C)(C)C3)cc1 (stereo unspecified),"31.6 µM [rising, single point]"
20,COc1ccc(C(NC(=O)c2c(F)c(F)c(F)c(F)c2F)c2ccccc2)cc1 (stereo unspecified),"2.82 µM [falling, single point]"
21,O=C(CN1C(=O)c2cccc3cccc1c23)Nc1ccc(S(=O)(=O)N2CCOCC2)cc1,"31.6 µM [falling, single point]"
22,COc1ccccc1N1CCN(C(=O)c2cc(-c3ccc(Cl)cc3)on2)CC1,"0.02 µM [falling, full curve, poor fit]"

row,Structure (SMILES),AC50
1,Cc1occc1C(=O)Nc1ccc2c(c1)OCCO2,"0.126 µM [falling, full curve]"
2,Cc1c(/C(O)=C2/C(=O)C(=O)N(Cc3cccnc3)C2c2cccs2)cnn1-c1ccccc1 (stereo unspecified),"20 µM [rising, partial curve]"
3,CN1CCc2cccc3c2[C@@H]1Cc1ccc(O)c(O)c1-3,"0.0794 µM [falling, full curve, poor fit]"
4,COc1cccc(C2(CSc3nnc(-c4cc(OC)c(OC)c(OC)c4)o3)OCCO2)c1,"0.794 µM [falling, full curve]"
5,CCc1ccccc1NC(=O)c1cnc2scc(C)n2c1=O,"5.62 µM [rising, single point]"
6,CCOC(=O)/C(C#N)=C1/C=C(C)NC(c2ccccc2O)=N1,"31.6 µM [rising, single point]"
7,COC(=O)CSc1nc2ccccc2c(=O)n1C,"0.251 µM [falling, full curve, poor fit]"
8,CCCCOC(=O)CNc1n[nH]c(=S)[nH]c1=O,"12.6 µM [rising, partial curve]"
9,CC(C)(C)NC(=O)C(=O)N/N=C/c1cccs1,"5.01 µM [falling, single point]"
10,O=C(NCc1ccccc1)c1cc(=O)nc2sc(-c3ccccc3)nn12,"5.01 µM [rising, partial curve]"
11,O=C(CCCNS(=O)(=O)c1cccc2nsnc12)NC1CCCCC1,"3.16 µM [falling, single point]"
12,COc1ccc(N2CCN(Cc3cc4c(cc3O)CCC4)CC2)cc1,"31.6 µM [falling, single point]"
13,COc1ccc(C(=O)NNC(=S)NC(=O)c2cc(-c3ccccc3)nc3ccccc23)cc1,"2.51 µM [falling, partial curve, poor fit]"
14,OC(CN1CCC(Cc2ccc(F)cc2)CC1)c1ccc(Cl)cc1 (stereo unspecified),"1.58 µM [falling, full curve]"
15,Cc1cccc(N(C(=O)c2ccc(CN3CCOCC3)o2)C(C(=O)NC(C)(C)C)c2ccc(F)cc2)c1 (stereo unspecified),"0.126 µM [rising, single point]"
16,COc1ccc(CCn2nnnc2C(c2ccccc2)N2CCN(C)CC2)cc1OC (stereo unspecified),"0.126 µM [falling, full curve, poor fit]"
17,Cc1ccc2[nH]c3c(=O)n(CCc4cnc[nH]4)cnc3c2c1,"0.398 µM [falling, partial curve, poor fit]"
18,COc1ccc(C(=O)Nn2c(C3CCC3)nc3ccccc3c2=O)c(OC)c1,"0.631 µM [rising, single point]"
19,CCC1CCc2c(sc(NC(=O)C3c4ccccc4Oc4ccccc43)c2C#N)C1 (stereo unspecified),"0.0891 µM [falling, full curve, poor fit]"
20,COC(=O)[C@H](CC(C)C)NC(=O)N1CCN(c2cccc(C(F)(F)F)c2)CC1,"0.1 µM [falling, single point]"
21,CCCOc1ccccc1C1CC(=O)Nc2cc3c(cc21)OCCO3 (stereo unspecified),"25.1 µM [falling, single point]"
22,CC(=O)Nc1nonc1-c1nc2ccccc2n1Cc1ccccc1,"0.0501 µM [falling, full curve, poor fit]"

# Twelve entries out of the list, sorted by formula weight, largest number first:
row,Structure (SMILES),AC50
4,COc1cccc(C2(CSc3nnc(-c4cc(OC)c(OC)c(OC)c4)o3)OCCO2)c1,"0.794 µM [falling, full curve]"
2,Cc1c(/C(O)=C2/C(=O)C(=O)N(Cc3cccnc3)C2c2cccs2)cnn1-c1ccccc1 (stereo unspecified),"20 µM [rising, partial curve]"
16,COc1ccc(CCn2nnnc2C(c2ccccc2)N2CCN(C)CC2)cc1OC (stereo unspecified),"0.126 µM [falling, full curve, poor fit]"
19,CCC1CCc2c(sc(NC(=O)C3c4ccccc4Oc4ccccc43)c2C#N)C1 (stereo unspecified),"0.0891 µM [falling, full curve, poor fit]"
10,O=C(NCc1ccccc1)c1cc(=O)nc2sc(-c3ccccc3)nn12,"5.01 µM [rising, partial curve]"
14,OC(CN1CCC(Cc2ccc(F)cc2)CC1)c1ccc(Cl)cc1 (stereo unspecified),"1.58 µM [falling, full curve]"
21,CCCOc1ccccc1C1CC(=O)Nc2cc3c(cc21)OCCO3 (stereo unspecified),"25.1 µM [falling, single point]"
12,COc1ccc(N2CCN(Cc3cc4c(cc3O)CCC4)CC2)cc1,"31.6 µM [falling, single point]"
5,CCc1ccccc1NC(=O)c1cnc2scc(C)n2c1=O,"5.62 µM [rising, single point]"
6,CCOC(=O)/C(C#N)=C1/C=C(C)NC(c2ccccc2O)=N1,"31.6 µM [rising, single point]"
17,Cc1ccc2[nH]c3c(=O)n(CCc4cnc[nH]4)cnc3c2c1,"0.398 µM [falling, partial curve, poor fit]"
9,CC(C)(C)NC(=O)C(=O)N/N=C/c1cccs1,"5.01 µM [falling, single point]"

# Later entries

row,Structure (SMILES),AC50
1,O=C(CCC(=O)N(c1ccc(F)cc1)C(C(=O)NC1CCCC1)c1ccncc1)Nc1cccnc1 (stereo unspecified),"5.01 µM [rising, single point]"
2,CNC(=O)CSc1nnc(-c2ccco2)n1-c1ccc(C)cc1,"31.6 µM [falling, single point]"
3,O=C(CC(NC(=O)c1ccccc1Cl)c1ccccc1)Nc1ccc2c(c1)OCO2 (stereo unspecified),"0.01 µM [falling, full curve, poor fit]"
4,O=C(CCCc1nc2ccccc2s1)N1CCN(S(=O)(=O)c2cccs2)CC1,"0.126 µM [rising, full curve, poor fit]"
5,C/C(O)=C\c1nc(=O)c2c(C)cc(C)nc2n1-c1ccccc1,"6.31 µM [rising, full curve]"
6,O=C(CSC1=Nc2ccccc2C2=NC(CCC(=O)NC3CCCCC3)C(=O)N12)Nc1cccc(Cl)c1 (stereo unspecified),"35.5 µM [rising, single point]"
7,CCCn1cnc2cc(NCc3cccc(OC)c3O)ccc21,"20 µM [falling, single point]"
8,COC(=O)c1c(-c2ccc(C)cc2)csc1N,"0.0355 µM [rising, full curve, poor fit]"
9,O=C(Nc1ccc(N2CCOCC2)cc1)c1ccncc1,"7.94 µM [falling, partial curve]"
10,O=c1[nH]c2ccsc2c(=O)n1-c1ccc(F)cc1,"0.02 µM [falling, full curve, poor fit]"
11,CCn1c(SCc2nc3sc(C(=O)O)c(C)c3c(=O)[nH]2)nc2ccccc21,"25.1 µM [falling, single point]"
12,O=C(Oc1ccccc1/C=C\C(=O)c1cc2ccccc2o1)c1cccc(F)c1,"17.8 µM [rising, single point]"
13,COc1cccc(N2CC(C(=O)Nc3c(C)cccc3C)CC2=O)c1 (stereo unspecified),"0.00794 µM [falling, full curve, poor fit]"
14,Cc1nnsc1C(=O)Nc1cc(Cl)ccc1Cl,"12.6 µM [falling, single point]"
15,CC(=O)C1=C(C)NC(SCC(=O)c2ccccc2)=C(C#N)C1CC(C)C (stereo unspecified),"10 µM [rising, partial curve]"
16,CCc1ccccc1NC(=O)c1cc2ncc(Br)cn2n1,"31.6 µM [rising, single point]"
17,COCCCNC(=O)C1CCN(c2ncccn2)CC1,"3.98 µM [falling, partial curve, poor fit]"
18,CC(=O)c1nc(N2C(=O)CC(Cc3cc(C)cc(C)c3)C2=O)sc1C (stereo unspecified),"17.8 µM [rising, partial curve]"
19,CC(C)COC(=O)CNc1n[nH]c(=S)[nH]c1=O,"12.6 µM [rising, single point]"
20,COc1cccc(C(=O)N/N=C2/SCC(=O)N2CCc2ccc(OC)c(OC)c2)c1,"35.5 µM [falling, single point]"
21,CC(C)c1cc(C(=O)Nc2ccc3c(c2)OCO3)no1,"35.5 µM [falling, single point]"
22,COc1ccccc1-n1nnnc1SCC(=O)NC1CCCC1,"5.01 µM [rising, partial curve]"
